Experimental data taken from PubChem BioAssay AID493014 (National Center for Advancing Translational Sciences (NCATS), 2011).
The list shows a part of the results. The main result of the screen is listed elsewhere. These columns were measured beside it and carry no call. Most of these compounds were active or inconclusive in the main read-out, so they are no random draw. Words in brackets tell the shape of the fitted curve; partial curves, single points and poor fits give uncertain potencies.

Assay: qHTS Assay to Find Inhibitors of Chronic Active B-Cell Receptor Signaling
Settings: ABC-DLBCL IkBa-CBG/CBR reporter, luminescence ratio (green luciferase fused to IkBa over red control in TMD8 lymphoma cells), 4 h
Procedure, shortened: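 TMD8 ABC-DLBCL cells carrying doxycycline-inducible green luciferase fused to IkappaBalpha plus unfused red luciferase were exposed to compounds (up to 46 uM) for 4 hrs at 37C. Activity came from the overlap-corrected green/red luminescence ratio.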

[1] = measured here: CBR red luminescence, cell number
[2] = measured here: IkBa-CBG green luminescence

| SMILES | AC50 [1] | AC50 [2] |
| --- | --- | --- |
| [2H]C([2H])(CCOS(N)(=O)=O)c1ccccc1 | 2.24 µM [rising, full curve, poor fit] |  |
| NC(=O)c1ccccc1NC(=S)NC(=O)c1ccc(Br)o1 | 23.1 µM [falling, single point] |  |
| Cc1ccc2nc(SCC(=O)Nc3cccc(Cl)c3)nc(=O)n2c1 | 29.1 µM [falling, single point] |  |
| O=C(Nc1ccc2c(c1)OCCO2)NC1(C(F)(F)F)Oc2ccccc2O1 | 29.1 µM [falling, single point] |  |
| CCn1cc(C(C)NC(=O)COc2ccc(Cl)cc2C)c(C)n1 (stereo unspecified) | 29.1 µM [rising, single point] |  |
| COc1ccccc1NC(=O)CN1C(=O)CSC(C)C1=O (stereo unspecified) | 29.1 µM [falling, single point] |  |
| CCOC(=O)/C(=C\c1cccc(O)c1)c1nc2sc(C)c(C)c2c(=O)[nH]1 | 18.4 µM [falling, partial curve] |  |
| COc1cc(OC)cc(-n2nnnc2SCC(=O)NCCc2ccc(OC)c(OC)c2)c1 | 22.4 µM [rising, single point] |  |
| O=C(CSc1cccs1)Nc1ccc2ccccc2c1 | 12.6 µM [falling, single point] |  |
| COc1ccc(N=C(c2ccccc2)c2c(C)[nH]n(-c3ccccc3)c2=O)c(OC)c1 | 0.708 µM [rising, partial curve, poor fit] |  |
| N#CCSc1nc(-c2ccccc2)nc2ccccc12 | 20 µM [falling, single point] |  |
| O=C(CC(Nc1cccc(Cl)c1Cl)C(=O)O)c1ccccc1 (stereo unspecified) | 25.1 µM [falling, single point] | 12.6 µM [rising, partial curve, poor fit] |
| Cc1ccc2[nH]c(C(=O)O)c(NC(=O)CN3CCN(c4cccc(C)c4C)CC3)c2c1 | 1.26 µM [rising, partial curve] |  |
| CCN(CC)C(=O)CC(c1ccc(F)cc1)c1ccc(OC(C)C)cc1 (stereo unspecified) | 25.9 µM [falling, partial curve, poor fit] |  |
| CCOc1ccc2nc(SCC(=O)Nc3ccc4c(c3)OCCO4)[nH]c2c1 | 18.4 µM [falling, partial curve, poor fit] |  |
| Cc1ccc(-c2nnn(CC(=O)N(CC3CCCO3)C(C(=O)NC3CCCCC3)c3ccc(F)cc3)n2)o1 (stereo unspecified) | 23.1 µM [falling, single point] |  |
| CC1CCC(C(=O)c2c(O)c3ccccc3oc2=O)CC1 (stereo unspecified) | 11.6 µM [falling, partial curve, poor fit] |  |
| COC(=O)Nc1ccc(S(=O)(=O)NCc2ccccn2)cc1 | 6.31 µM [falling, single point] |  |
| Cc1ccccc1NC(=O)CSc1nc2ccccc2c(=O)n1C | 10 µM [falling, partial curve] |  |
| CCOC(=O)C1CCN(c2nc3c(C)cccn3c(=O)c2/C=C(\C#N)S(=O)(=O)c2ccccc2)CC1 |  | 12.6 µM [rising, partial curve, poor fit] |
| Cc1ccc(-c2ccc(SCC(=O)Nc3ccc4c(c3)OCCO4)nn2)cc1 | 25.9 µM [falling, single point] |  |

Entries of single compounds, quoted from the list:
NC(=O)c1ccccc1NC(=S)NC(=O)c1ccc(Br)o1 reads AC50 [1]: 23.1 µM [falling, single point]
[2H]C([2H])(CCOS(N)(=O)=O)c1ccccc1 reads AC50 [1]: 2.24 µM [rising, full curve, poor fit]
COc1cc(OC)cc(-n2nnnc2SCC(=O)NCCc2ccc(OC)c(OC)c2)c1 reads AC50 [1]: 22.4 µM [rising, single point]
COC(=O)Nc1ccc(S(=O)(=O)NCc2ccccn2)cc1 reads AC50 [1]: 6.31 µM [falling, single point]

Additional structures.

| SMILES | AC50 [1] | AC50 [2] |
| --- | --- | --- |
| COc1ccc(CNCC(O)(c2ccccc2)c2ccccc2)cc1OC | 2.82 µM [falling, partial curve, poor fit] |  |
| O=C(C1CCN(S(=O)(=O)c2cccs2)CC1)N1CCc2ccccc2C1 | 29.1 µM [rising, single point] |  |
| Cc1ccccc1-c1nc(CS(=O)(=O)CC(=O)N2CCc3ccccc32)c(C)o1 | 0.0411 µM [rising, full curve, poor fit] |  |
| Cc1cccc(C(=O)Nc2sc3c(c2C(=O)O)CCC3)c1 | 0.501 µM [falling, full curve] |  |
| O=C(ON=C1CCN(S(=O)(=O)c2ccccc2)CC1)c1cccc(Cl)c1 | 9.2 µM [rising, partial curve, poor fit] |  |
| C=CCNC(=S)N/N=C/c1ccc(-c2cccc([N+](=O)[O-])c2)o1 | 7.94 µM [rising, partial curve, poor fit] |  |
| CCc1ccc(OCC(=O)N/N=C2\CC(=O)c3ccccc32)cc1 | 20.6 µM [falling, single point] |  |
| NC(=S)N/N=C/c1cc([N+](=O)[O-])ccc1OCCOc1ccccc1 | 18.4 µM [rising, single point] |  |
| CCCC(c1nnnn1CC1CCCO1)N1CCN(c2nc3ccccc3s2)CC1 (stereo unspecified) | 0.13 µM [falling, full curve, poor fit] |  |
| O=C(COc1ccc(Br)cc1CNCCc1ccccc1)NCc1ccccc1 | 35.5 µM [falling, single point] |  |
| CCc1cc2c(=O)c(-c3ccc4c(c3)OCCO4)c(C)oc2cc1OS(C)(=O)=O | 18.4 µM [falling, single point] |  |
| C=CCN(C(=O)CNC(=O)c1ccco1)C(C(=O)NC1CCCCC1)c1ccccc1 (stereo unspecified) | 6.51 µM [rising, single point] |  |
| C=CCN1C(=O)/C(=C/c2ccc(OC(C)=O)c(OCC)c2[N+](=O)[O-])SC1=S | 3.98 µM [falling, partial curve] |  |
| OCCN(CCO)c1ncnc2c1oc1ccc(Br)cc12 | 0.0731 µM [rising, full curve, poor fit] |  |
| COc1ccc(CC(=O)N(C)Cc2cccc(F)c2)cc1S(=O)(=O)N1CCOCC1 | 4.61 µM [rising, full curve, poor fit] |  |
| CS(=O)(=O)N1CCC(C(=O)NCCc2ccccc2)CC1 | 20.6 µM [rising, single point] |  |
| O=C(NCC1CCCO1)c1cc2c([nH]c3ccccc32)c(-c2cccc(Cl)c2)n1 (stereo unspecified) | 6.31 µM [falling, full curve, poor fit] |  |
| CCC1C(=O)NCCN1Cc1nc(-c2ccc(C)s2)oc1C (stereo unspecified) | 0.708 µM [rising, full curve, poor fit] |  |
| O=C1CC(Sc2ccc(Cl)cc2)C(=O)N1c1ccc2c(c1)OCCO2 (stereo unspecified) | 12.6 µM [falling, single point] |  |
| CCOC(=O)c1ccc(NC(=O)c2c(C)[nH]c(C(=O)OCC)c2C)cc1 | 4.61 µM [rising, full curve, poor fit] |  |
| COc1ccc(N2CC(C)Cn3c2nc2c3c(=O)n(Cc3ccc(C)cc3)c(=O)n2C)c(OC)c1 (stereo unspecified) | 35.5 µM [falling, single point] |  |

| SMILES | AC50 [1] | AC50 [2] |
| --- | --- | --- |
| O=C(NNC(=O)c1cccs1)c1ccc(Cl)nc1 | 20.6 µM [falling, partial curve] |  |
| N#Cc1ccc(S(=O)(=O)Nc2ccccc2N2CCOCC2)cc1 | 29.1 µM [rising, single point] |  |
| CCN(CC)C(=O)c1cccc(NC(=O)c2cc(C3CC3)nc3c2cnn3C(C)C)c1 | 29.1 µM [falling, partial curve, poor fit] |  |
| CCN1C(=O)/C(=C\c2ccc3c(c2)OCO3)C(C(=O)OC)=C1C | 6.31 µM [falling, partial curve] |  |
| Cc1nc(CS(=O)(=O)c2ccc(Cl)cc2)cc(Sc2ccc(Cl)cc2)n1 | 29.1 µM [falling, single point] |  |
| COc1cc(C(=O)N2c3ccccc3CC2C)cc(OC)c1OC (stereo unspecified) | 2.59 µM [falling, full curve, poor fit] |  |
| Cc1cc(C)c2c(=O)[nH]c(SCC(=O)N3CCOCC3)nc2n1 | 0.501 µM [falling, full curve, poor fit] |  |
| COc1ccc(CN2CCN(C(=O)CCC(=O)Nc3nnc(C(F)(F)F)s3)CC2)cc1F | 0.794 µM [falling, full curve, poor fit] |  |
| CCOc1cc(C(c2c(C)[nH][nH]c2=O)c2c(C)[nH][nH]c2=O)cc(Br)c1OC | 25.1 µM [falling, single point] |  |
| O=C(N/N=C1\CC(c2ccccc2)Oc2ccccc21)c1ccc(O)cc1 (stereo unspecified) | 0.355 µM [falling, full curve, poor fit] | 22.4 µM [rising, partial curve, poor fit] |
| O=C(COC(=O)c1ccccc1NS(=O)(=O)c1cccs1)NCC12CC3CC(CC(C3)C1)C2 | 18.4 µM [falling, partial curve, poor fit] |  |
| CCNc1cc(Cl)nc(SC)n1 | 10 µM [rising, partial curve] |  |
| O=C(O)CSc1nnnn1-c1ccccc1 | 0.411 µM [rising, full curve, poor fit] |  |
| CN(C)S(=O)(=O)c1cccc(N=C2NN=C(c3ccccc3)CS2)c1 | 14.6 µM [falling, partial curve] | 20.6 µM [rising, single point] |
| N#Cc1ccccc1CN1C(=O)NC2(CCCCCC2)C1=O | 12.6 µM [falling, single point] |  |
| O=C(CN1CCN(c2ccc(F)cc2)CC1)Nc1cccc(C(F)(F)F)c1 | 1 µM [falling, full curve] |  |
| CCC(=O)Nc1ccccc1C(=O)OCC(=O)c1ccc2ccccc2c1 | 16.4 µM [falling, partial curve, poor fit] | 29.1 µM [rising, partial curve, poor fit] |
| C=C1CCC[C@]2(C)C[C@H]3OC(=O)C(CN4CCCCC4CO)[C@H]3CC12 (stereo partly specified) | 11.2 µM [falling, partial curve, poor fit] |  |
| Cc1ccc2[nH]c(=O)c(Cc3ccccc3)c(O)c2c1 | 0.224 µM [rising, full curve, poor fit] |  |
| O=C1Nc2ccccc2Nc2ccccc21 | 4.47 µM [rising, partial curve, poor fit] |  |
